Laboratory results taken from patent US20140294994A1, “PHARMACEUTICAL COMPOSITION FOR ELIMINATION OF CANCER STEM CELLS” (priority 2011, published 2014).
pIC50: −log10 of the molar value.

System: A549 cells
Experiment: Clonogenic assay
Assay type: cell-based
Details: Homo sapiens
Procedure: The NSCLC cancer cell lines, A549, H1975, CL25, CL83, CL97, CL141, and CL152 were maintained in RPMI medium. Tested cells were seeded respectively in 6 well plates with 10^4 cells per well for 14 days. Each well contained 10 ml RPMI medium as cultured condition for NSCLC cells. […] Trifluoperazine and other tested drugs were added 24 hours after seeding of the cells. The medium and trifluoperazine were changed once on day 4. After the treatments, cells were washed with PBS, and the colonies were fixed with fix solution (acetic acid:methanol=1:3) and stained with 0.5% crystal violet in methanol. After removing the crystal violet carefully and rinse with tap water, the colonies were counted manually.

Work on `CN1CCN(CCCN2c3ccccc3Sc3ccc(Cl)cc32)CC1` [Prochlorperazine] yielded a pIC50 of 5.00 to 5.30.
